Laboratory results published in article PMC4461266 (PLoS Pathogens, 2015).
Results are given in words; binding and its absence hold for the method and conditions named. In cells and extracts the contact can be indirect. A yes stands for co-enrichment or nearness to the bait. Other partners may have been found.

Amino acid sequences for entries named in this document (tags omitted).
UniProt P03431: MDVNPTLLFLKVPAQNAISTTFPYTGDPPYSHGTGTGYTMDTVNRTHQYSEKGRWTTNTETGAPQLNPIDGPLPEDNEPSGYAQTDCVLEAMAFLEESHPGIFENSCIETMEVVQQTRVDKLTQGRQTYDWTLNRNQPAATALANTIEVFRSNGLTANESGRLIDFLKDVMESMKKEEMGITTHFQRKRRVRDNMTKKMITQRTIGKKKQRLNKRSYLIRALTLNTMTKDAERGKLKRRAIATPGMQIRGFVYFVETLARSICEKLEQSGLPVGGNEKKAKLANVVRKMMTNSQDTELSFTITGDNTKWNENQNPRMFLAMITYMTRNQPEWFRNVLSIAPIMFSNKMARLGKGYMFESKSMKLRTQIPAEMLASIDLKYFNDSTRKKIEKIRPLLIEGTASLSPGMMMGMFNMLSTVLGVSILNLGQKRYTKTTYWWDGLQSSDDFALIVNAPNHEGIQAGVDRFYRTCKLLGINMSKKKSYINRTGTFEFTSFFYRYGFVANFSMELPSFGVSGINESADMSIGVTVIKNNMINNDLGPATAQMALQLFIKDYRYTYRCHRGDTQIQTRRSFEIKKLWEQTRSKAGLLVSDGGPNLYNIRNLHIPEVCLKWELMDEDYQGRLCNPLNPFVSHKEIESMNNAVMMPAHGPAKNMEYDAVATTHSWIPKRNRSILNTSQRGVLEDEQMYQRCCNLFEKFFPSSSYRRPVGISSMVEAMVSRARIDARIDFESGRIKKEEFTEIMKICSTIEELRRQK
UniProt P51570: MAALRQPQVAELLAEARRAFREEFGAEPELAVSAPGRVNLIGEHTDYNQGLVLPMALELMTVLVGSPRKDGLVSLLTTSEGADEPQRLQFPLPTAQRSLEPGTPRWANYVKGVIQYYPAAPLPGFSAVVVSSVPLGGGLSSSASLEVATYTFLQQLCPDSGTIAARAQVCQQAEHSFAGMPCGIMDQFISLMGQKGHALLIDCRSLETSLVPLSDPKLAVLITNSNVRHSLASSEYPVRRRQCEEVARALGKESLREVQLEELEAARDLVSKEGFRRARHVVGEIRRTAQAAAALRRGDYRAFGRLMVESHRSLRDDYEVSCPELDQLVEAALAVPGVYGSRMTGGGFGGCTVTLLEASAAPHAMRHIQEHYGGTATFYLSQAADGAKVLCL
UniProt Q13049: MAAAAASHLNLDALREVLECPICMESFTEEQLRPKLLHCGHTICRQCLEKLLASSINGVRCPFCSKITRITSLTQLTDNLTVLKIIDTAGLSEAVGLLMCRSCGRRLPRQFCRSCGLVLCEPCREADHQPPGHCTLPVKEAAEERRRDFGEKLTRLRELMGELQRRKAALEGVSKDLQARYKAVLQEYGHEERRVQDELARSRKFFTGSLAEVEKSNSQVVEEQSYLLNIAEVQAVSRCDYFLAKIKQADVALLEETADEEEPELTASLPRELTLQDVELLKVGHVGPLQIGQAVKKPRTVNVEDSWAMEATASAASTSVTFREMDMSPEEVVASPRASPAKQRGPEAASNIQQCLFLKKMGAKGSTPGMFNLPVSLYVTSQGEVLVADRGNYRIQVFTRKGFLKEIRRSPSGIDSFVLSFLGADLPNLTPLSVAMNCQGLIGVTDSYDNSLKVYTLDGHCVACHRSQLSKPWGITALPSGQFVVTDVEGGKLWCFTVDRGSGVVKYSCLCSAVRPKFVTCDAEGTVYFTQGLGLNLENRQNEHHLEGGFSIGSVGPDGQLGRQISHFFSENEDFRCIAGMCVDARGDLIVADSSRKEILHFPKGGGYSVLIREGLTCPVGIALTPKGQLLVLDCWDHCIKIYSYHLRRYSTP
UniProt O75340: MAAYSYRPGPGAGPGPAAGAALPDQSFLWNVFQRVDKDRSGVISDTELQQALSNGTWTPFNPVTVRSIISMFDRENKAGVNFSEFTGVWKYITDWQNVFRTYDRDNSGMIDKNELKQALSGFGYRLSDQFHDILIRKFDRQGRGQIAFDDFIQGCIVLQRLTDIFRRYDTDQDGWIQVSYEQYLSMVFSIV
UniProt Q6DN90: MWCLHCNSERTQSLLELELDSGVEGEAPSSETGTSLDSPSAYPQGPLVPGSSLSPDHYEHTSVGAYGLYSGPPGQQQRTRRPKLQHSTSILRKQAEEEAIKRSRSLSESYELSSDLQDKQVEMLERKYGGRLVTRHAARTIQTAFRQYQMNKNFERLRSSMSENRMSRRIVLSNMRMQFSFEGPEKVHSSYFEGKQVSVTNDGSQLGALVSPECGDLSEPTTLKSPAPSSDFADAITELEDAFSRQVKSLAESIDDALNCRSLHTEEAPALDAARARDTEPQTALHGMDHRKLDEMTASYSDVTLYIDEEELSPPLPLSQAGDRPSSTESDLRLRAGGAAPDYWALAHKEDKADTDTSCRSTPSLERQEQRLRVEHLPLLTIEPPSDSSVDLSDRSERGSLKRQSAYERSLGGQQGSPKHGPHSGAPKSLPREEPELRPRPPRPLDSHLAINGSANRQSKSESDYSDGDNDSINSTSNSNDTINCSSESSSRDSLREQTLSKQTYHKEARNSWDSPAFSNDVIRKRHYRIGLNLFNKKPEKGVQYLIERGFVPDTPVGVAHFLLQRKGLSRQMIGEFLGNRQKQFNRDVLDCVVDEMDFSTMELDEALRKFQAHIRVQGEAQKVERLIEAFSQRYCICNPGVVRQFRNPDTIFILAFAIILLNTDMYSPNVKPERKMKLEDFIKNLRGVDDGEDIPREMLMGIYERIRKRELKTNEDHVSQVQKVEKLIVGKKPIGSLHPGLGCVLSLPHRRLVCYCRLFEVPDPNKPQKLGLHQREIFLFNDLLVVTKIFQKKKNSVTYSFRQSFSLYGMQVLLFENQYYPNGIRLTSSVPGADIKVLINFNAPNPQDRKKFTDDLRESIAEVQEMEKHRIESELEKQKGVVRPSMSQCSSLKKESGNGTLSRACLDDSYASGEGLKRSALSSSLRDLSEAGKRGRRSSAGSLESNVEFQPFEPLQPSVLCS
UniProt Q9UNE7: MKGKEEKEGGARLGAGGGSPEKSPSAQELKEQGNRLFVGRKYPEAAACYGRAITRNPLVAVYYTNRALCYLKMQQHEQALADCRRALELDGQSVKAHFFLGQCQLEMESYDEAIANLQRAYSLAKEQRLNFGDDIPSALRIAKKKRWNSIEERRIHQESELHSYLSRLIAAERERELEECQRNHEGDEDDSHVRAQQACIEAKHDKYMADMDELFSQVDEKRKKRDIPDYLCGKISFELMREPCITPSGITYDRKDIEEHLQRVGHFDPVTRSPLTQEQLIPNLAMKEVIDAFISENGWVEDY

B1: HAUS6/DGT6 (protein, UniProt Q7Z4H7 1-955)
chain: MSSASVTAFEKEHLWMYLQALGFEPGPATIACGKIVSHTHLGVNMFDKLNRDAFHIISYFLFQVLDQSLTKEVFKFCWPPFDQKSDTEFRKHCCEWIKRISGECGSSFPQVVGSLFLSPGGPKFIHLMYHFARFVAMKYIKSNSKNSSHHFVETFNIKPQDLHKCIARCHFARSRFLQILQRQDCVTQKYQENAQLSVKQVRNLRSECIGLENQIKKMEPYDDHSNMEEKIQKVRSLWASVNETLMFLEKEREVVSSVLSLVNQYALDGTNVAINIPRLLLDKIEKQMFQLHIGNVYEAGKLNLLTVIQLLNEVLKVMKYERCQADQARLTVDLHYLEKETKFQKERLSDLKHMRYRIKDDLTTIRHSVVEKQGEWHKKWKEFLGLSPFSLIKGWTPSVDLLPPMSPLSFDPASEEVYAKSILCQYPASLPDAHKQHNQENGCRGDSDTLGALHDLANSPASFLSQSVSSSDRNSVTVLEKDTKMGTPKEKNEAISKKIPEFEVENSPLSDVAKNTESSAFGGSLPAKKSDPFQKEQDHLVEEVARAVLSDSPQLSEGKEIKLEELIDSLGSNPFLTRNQIPRTPENLITEIRSSWRKAIEMEENRTKEPIQMDAEHREVLPESLPVLHNQREFSMADFLLETTVSDFGQSHLTEEKVISDCECVPQKHVLTSHIDEPPTQNQSDLLNKKVICKQDLECLAFTKLSETSRMETFSPAVGNRIDVMGGSEEEFMKILDHLEVSCNKPSTNKTMLWNSFQISSGISSKSFKDNDFGILHETLPEEVGHLSFNSSSSSEANFKLEPNSPMHGGTLLEDVVGGRQTTPESDFNLQALRSRYEALKKSLSKKREESYLSNSQTPERHKPELSPTPQNVQTDDTLNFLDTCDLHTEHIKPSLRTSIGERKRSLSPLIKFSPVEQRLRTTIACSLGELPNLKEEDILNKSLDAKEPPSDLTR

Molecular target: FLAG-tagged PB1 derived from influenza A/Puerto Rico/8/1934 (PR8) (influenza A virus A/Puerto Rico/8/1934 (H1N1)) (UniProt P03431)
Test: affinity purification with mass spectrometry

Molecule	binding
GALK1 (from UniProt P51570 1-392)	binds
endogenous TRIM32 (tripartite motif-containing protein 32) (from UniProt Q13049 1-653)	binds
PDCD6 (from UniProt O75340 1-191)	binds
IQSEC1 (from UniProt Q6DN90 1-963)	binds
STUB1 (from UniProt Q9UNE7 1-303)	binds
B1	binds
